# In patent US6787530B1, “Use of pregnane-diones as analgesic agents” (priority 1996, dated 2004):
# Columns and labels:
# rats = assay: Loss of righting reflex and loss of coordination in the rotarod test after intraperitoneal dosing; conditions: ip; Saffan 2 ml/kg, alphaxalone 18 mg/kg, alphadolone 6 mg/kg; groups of 10 rats
# Description: (§1) Groups of 10 rats were examined for the duration of the loss of righting reflex and loss of coordination in the rotarod test and also for antinociceptive effects in the electrical current threshold test measured in the tail. […] Thus we were able to compare the duration of sedation and anaesthesia and quantity of antinociception following intraperitoneal administration of the neurosteroid mixture and also following the components of the mixture at the doses which were given when the combination was used.
# We have gone on to test the ability for alphadolone to produce sedation. We have given doses up to […] intraperitoneally of alphadolone.
# [1] = test system: spinal cord GABAA receptors; conditions: rat, in vivo
# Description: as §1
# Rats were given a range of doses of alphadolone from 0.1 to 100 mg/kg intraperitoneally. The antinociceptive effect was measured using electrical current in the tail.
smiles,measurement,setting,value
"CC(=O)[C@H]1CC[C@H]2[C@@H]3CC[C@H]4C[C@H](O)CC[C@]4(C)[C@H]3C(=O)C[C@]12C [alphaxalone, reference compound]","sedation and anaesthesia (loss of righting reflex, loss of coordination in rotarod test)",rats,same onset and duration of sedation and anaesthesia
same,antinociceptive effects in the electrical current threshold test measured in the tail,[1],no antinociceptive effects whatsoever
